The record followed here is paper PMC4877375.

No constants are given. Whether binding was seen depends on the method and setting. In cells and extracts the contact can be indirect. A yes stands for co-enrichment or nearness to the bait. Other partners may have been found. A no says only that the protein was not detected with the bait.

B1: PSA1 (protein, UniProt P41940 1-361)
chain: MKGLILVGGYGTRLRPLTLTVPKPLVEFGNRPMILHQIEALANAGVTDIVLAVNYRPEVMVETLKKYEKEYGVNITFSVETEPLGTAGPLKLAEDVLKKDNSPFFVLNSDVICEYPFKELADFHKAHGGKGTIVATKVDEPSKYGVIVHDIATPNLIDRFVEKPKEFVGNRINAGLYILNPEVIDLIEMKPTSIEKETFPILVEEKQLYSFDLEGFWMDVGQPKDFLSGTVLYLNSLAKRQPKKLATGANIVGNALIDPTAKISSTAKIGPDVVIGPNVTIGDGVRITRSVVLCNSTIKNHSLVKSTIVGWNSTVGQWCRLEGVTVLGDDVEVKDEIYINGGKVLPHKSISDNVPKEAIIM
B2: RVS161 (protein, UniProt P25343 1-265)
chain: MSWEGFKKAINRAGHSVIIKNVDKTIDKEYDMEERRYKVLQRAGEALQKEAKGFLDSLRAVTASQTTIAEVISNLYDDSKYVAGGGYNVGNYYLQCVQDFDSETVKQLDGPLRETVLDPITKFSTYFKEIEEAIKKRDHKKQDFDAAKAKVRRLVDKPAKDASKLPRAEKELSLAKDIFENLNNQLKTELPQLVSLRVPYFDPSFEALIKIQLRFCTDGYTRLAQIQQYLDQQSRDDYANGLLDTKIEELLGQMTSLDICALGIK
B3: Trs85p (protein, UniProt P46944 1-698)
chain: MVFSYEHYMNLLFHLDNSKETVPPEIAKRIISNAIAPVITVTSTPLFDKHIQETYKVDSLYMLLRFFGGCVSDRDQANEAKVGQHEHEVCDASDSTDSIPKNKNLEVPNLSKKGSRSRSNSLFQRDSTQSQYIRFTRPLGDLIETRDANDMLFNYHSLEVFLDNYLKLVAANTDEMVPHNLLKKSIYHSFFSLAISSTNNLSPYETFNHPILSLIALDISNGEVYEDARDLLVNFKNLNHNTENFPIFMNTNEMLPVFLLCYNDDSQEEFEKCQALAKKLKKQLFVESILLALWKDSFIYDENSVIQLHQPVMSSLEEILFFLQAPTQTTLSLALINSIYDMLDYLVYDLMIPFMKRKVSFWEETILQPRKSLFNGAKFFKKFMNKNPVNGNHQHNSLTRDSQGNEYFASSSSEFLMRKLADWSMMLSDFKTAYSTYESLMDDLDAFPKYLASCIEWCAVSLLMGAQSIVTVKMIKNDINPLIERALATYENCSRIQRGKGKESNSLDVTEPVRSYETRCMILASELFLSLSNTWTSTPYAIQYLETILDECKLGPCSQIMVWERLSDCYNLRVDPRIKHRVGAMKKDAKDTEDLRGEHKYSTDHFTDEDILSEGLTRRRKAAFFRLIAAKKWAEQKQWRQVSWCLKDIESTYSEIKFLHGNGLILSKLKNQLNLKDVDSAPRPSEKNLTRTSVSFIG
B4: Ypt31p (protein, UniProt P38555 1-223)
chain: MSSEDYGYDYDLLFKIVLIGDSGVGKSNLLSRFTKNEFNMDSKSTIGVEFATRTLEIDGKRIKAQIWDTAGQERYRAITSAYYRGAVGALIVYDISKSSSYENCNHWLSELRENADDNVAVGLIGNKSDLAHLRAVPTEESKTFAQENQLLFTETSALNSENVDKAFEELINTIYQKVSKHQMDLGDSSANGNANGASAPNGPTISLTPTPNENKKANGNNCC
B5: Ypt32p, P51996 1-222 (protein)
chain: MSNEDYGYDYDYLFKIVLIGDSGVGKSNLLSRFTTDEFNIESKSTIGVEFATRTIEVENKKIKAQIWDTAGQERYRAITSAYYRGAVGALIVYDISKSSSYENCNHWLTELRENADDNVAVGLIGNKSDLAHLRAVPTDEAKNFAMENQMLFTETSALNSDNVDKAFRELIVAIFQMVSKHQVDLSGSGTNNMGSNGAPKGPTISLTPAPKEDKKKKSSNCC
B6: Tca17p, P32613 1-152 (protein)
chain: MSLRPCFVSLIDESDKPILIYVPNEAENEMNDVLKYNVLSNISLDYFESALVEWHSLDSKPLLKSIFQLEGVSVFAMLIKQTGLKIVIGFEQKSLSGADDEFEAINQIFETVRKIYIRVKCNPLLVSGDEKSIIKSLERKFDELFISTEVEL

The target of the first experiment is T1, Trs120p-TAP (yeast (endogenous in the yeast strain)) (UniProt Q04183).
T1 sequence: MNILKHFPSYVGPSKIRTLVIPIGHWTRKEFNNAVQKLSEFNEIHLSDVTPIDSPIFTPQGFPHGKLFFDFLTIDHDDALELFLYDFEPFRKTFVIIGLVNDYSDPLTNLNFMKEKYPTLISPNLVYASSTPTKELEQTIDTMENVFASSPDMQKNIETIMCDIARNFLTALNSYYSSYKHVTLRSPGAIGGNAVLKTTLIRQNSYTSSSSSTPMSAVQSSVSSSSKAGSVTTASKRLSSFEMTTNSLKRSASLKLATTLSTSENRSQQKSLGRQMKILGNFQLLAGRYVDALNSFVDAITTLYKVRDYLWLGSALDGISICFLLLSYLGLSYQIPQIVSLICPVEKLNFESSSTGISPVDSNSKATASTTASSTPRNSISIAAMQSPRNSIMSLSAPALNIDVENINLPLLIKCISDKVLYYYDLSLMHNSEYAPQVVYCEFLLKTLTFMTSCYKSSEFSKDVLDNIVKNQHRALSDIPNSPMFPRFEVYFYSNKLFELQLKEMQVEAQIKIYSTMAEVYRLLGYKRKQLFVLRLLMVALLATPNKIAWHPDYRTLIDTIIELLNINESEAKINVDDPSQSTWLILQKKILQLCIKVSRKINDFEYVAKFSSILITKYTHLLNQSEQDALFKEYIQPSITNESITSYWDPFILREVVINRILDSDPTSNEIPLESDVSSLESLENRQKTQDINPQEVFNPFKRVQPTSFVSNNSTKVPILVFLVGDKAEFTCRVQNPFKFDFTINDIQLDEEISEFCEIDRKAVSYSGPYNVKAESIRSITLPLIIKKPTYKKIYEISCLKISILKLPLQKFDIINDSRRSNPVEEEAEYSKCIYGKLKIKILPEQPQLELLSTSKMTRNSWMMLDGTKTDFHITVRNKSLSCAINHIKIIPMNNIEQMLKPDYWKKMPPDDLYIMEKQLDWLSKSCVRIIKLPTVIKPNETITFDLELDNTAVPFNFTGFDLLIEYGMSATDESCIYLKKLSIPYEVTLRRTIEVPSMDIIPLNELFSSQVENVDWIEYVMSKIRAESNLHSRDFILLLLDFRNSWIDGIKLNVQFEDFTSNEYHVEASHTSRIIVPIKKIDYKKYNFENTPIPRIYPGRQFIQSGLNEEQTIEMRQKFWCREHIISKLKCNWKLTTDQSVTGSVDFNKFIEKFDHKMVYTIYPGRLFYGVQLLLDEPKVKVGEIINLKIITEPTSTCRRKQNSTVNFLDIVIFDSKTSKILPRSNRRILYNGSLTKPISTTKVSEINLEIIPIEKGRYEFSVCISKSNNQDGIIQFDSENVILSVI
The experiment is described as follows: affinity purification with mass spectrometry; Trs120p-TAP purified from yeast lysate (1% CHAPS, 100 mM NaCl) on IgG beads, TEV elution, calmodulin beads, EGTA elution; gel bands or total eluate analysed by MS/MS.
Conditions: not given
With B1, the binding result is given as “binds”.
As to B2, the binding result is recorded as “binds”.
In the case of B3, the binding entry is recorded as “no binding”.
On the same count and under the same terms, then B4, with “no binding”.

The target of another experiment is T2, Trs120p-TAP (yeast (endogenous in the yeast strain)), Q04183.
T2 chain: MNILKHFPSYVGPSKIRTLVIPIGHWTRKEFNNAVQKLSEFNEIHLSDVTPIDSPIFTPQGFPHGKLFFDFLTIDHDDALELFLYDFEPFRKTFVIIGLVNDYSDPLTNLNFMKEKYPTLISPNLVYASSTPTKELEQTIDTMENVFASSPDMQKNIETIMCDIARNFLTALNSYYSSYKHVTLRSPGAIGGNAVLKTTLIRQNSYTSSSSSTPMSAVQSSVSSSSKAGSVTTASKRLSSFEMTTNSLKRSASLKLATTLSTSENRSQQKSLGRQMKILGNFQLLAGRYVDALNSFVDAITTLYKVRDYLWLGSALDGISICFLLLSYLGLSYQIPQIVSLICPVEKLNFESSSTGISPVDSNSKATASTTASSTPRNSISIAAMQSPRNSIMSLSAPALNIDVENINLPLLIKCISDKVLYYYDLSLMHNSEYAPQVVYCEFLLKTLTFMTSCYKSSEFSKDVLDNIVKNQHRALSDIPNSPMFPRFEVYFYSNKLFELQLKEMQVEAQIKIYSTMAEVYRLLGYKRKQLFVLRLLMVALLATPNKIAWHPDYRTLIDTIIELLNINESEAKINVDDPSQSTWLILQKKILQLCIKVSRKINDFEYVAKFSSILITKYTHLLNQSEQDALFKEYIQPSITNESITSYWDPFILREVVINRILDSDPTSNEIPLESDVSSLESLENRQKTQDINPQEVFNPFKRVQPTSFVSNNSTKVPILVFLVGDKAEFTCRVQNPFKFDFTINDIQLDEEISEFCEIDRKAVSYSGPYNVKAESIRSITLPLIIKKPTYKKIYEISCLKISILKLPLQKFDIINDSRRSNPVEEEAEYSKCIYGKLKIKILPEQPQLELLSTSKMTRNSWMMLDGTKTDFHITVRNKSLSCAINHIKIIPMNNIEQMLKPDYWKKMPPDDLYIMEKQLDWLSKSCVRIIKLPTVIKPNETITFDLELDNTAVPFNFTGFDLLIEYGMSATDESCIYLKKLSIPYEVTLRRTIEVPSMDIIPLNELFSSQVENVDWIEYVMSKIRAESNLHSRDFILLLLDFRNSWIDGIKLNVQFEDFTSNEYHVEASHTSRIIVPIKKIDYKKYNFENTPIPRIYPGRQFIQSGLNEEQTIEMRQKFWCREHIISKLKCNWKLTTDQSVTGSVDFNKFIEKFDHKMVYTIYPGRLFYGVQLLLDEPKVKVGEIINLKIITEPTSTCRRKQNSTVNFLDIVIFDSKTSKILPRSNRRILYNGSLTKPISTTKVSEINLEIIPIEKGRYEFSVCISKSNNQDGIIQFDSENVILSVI
The description is as above. Conditions: remark: other sources report otherwise.
For B5, the binding result was “no binding”.
The same measure, in the same setting: then B6, with “binds”.
